IC50 data for one molecule are collected here from article PMC3189488 (British journal of haematology, 2010).

This test relates to Hodgkin lymphoma (HL) cell lines. The test is described as follows: cells. The following applies: Homo sapiens, 72 h, read-out: IC50 cell viability (MTS).

`O=C(CCCCCCC(=O)Nc1ccccc1)NO` [vorinostat, suberoylanilide hydroxamic]: the half-inhibitory concentration (IC50) is 1800 to 2800 nM.
